Consider two molecules from article doi:10.1101/2025.08.07.669073 (bioRxiv, 2025).

Sequences of proteins named here, by UniProt entry; tags and fusion partners are left off.
UniProt Q9HD20: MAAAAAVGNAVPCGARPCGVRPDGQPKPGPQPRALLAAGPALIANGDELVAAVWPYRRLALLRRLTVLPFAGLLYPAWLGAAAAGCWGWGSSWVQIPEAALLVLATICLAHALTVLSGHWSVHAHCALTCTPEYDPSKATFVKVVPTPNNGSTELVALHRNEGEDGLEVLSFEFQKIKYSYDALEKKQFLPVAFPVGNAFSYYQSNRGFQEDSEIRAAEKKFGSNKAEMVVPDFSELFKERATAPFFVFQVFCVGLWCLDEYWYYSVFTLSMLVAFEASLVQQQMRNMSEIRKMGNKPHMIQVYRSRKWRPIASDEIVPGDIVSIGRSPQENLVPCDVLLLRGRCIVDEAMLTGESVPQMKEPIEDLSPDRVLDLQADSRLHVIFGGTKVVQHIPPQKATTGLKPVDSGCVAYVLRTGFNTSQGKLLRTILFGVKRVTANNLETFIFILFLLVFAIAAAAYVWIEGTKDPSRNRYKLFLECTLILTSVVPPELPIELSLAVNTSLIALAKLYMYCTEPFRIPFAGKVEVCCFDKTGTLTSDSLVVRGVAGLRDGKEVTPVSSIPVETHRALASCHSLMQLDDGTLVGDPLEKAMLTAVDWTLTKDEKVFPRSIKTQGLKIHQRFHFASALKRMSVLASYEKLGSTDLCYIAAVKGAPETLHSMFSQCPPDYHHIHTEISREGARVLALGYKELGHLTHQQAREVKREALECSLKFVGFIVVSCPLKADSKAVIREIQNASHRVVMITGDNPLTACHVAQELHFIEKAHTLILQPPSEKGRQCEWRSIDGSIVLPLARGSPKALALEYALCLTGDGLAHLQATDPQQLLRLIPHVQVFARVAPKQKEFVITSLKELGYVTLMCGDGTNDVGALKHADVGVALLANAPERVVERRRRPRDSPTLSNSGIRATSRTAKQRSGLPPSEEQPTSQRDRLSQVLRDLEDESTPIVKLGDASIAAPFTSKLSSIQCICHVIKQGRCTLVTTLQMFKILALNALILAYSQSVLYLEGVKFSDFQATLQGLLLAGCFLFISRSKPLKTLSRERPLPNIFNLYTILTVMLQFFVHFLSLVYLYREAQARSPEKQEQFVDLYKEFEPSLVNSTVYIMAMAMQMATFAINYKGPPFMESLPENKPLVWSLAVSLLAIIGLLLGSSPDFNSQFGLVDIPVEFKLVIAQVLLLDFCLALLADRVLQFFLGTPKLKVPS

Results are given in words; binding and its absence hold for the method and conditions named. Binding seen in cells or lysates may run through a third protein. Some results given as binding are weak or reduced against the parent protein; the word gives no strength. For part of these data: Sequences can lack the tags named with a protein.

Common to all, as to test: co-IP
The target in test [1] is T1, human EMC7 lacking the entire TMD and C-terminal region (Δ159-242) (human) (UniProt Q9NPA0).
T1 sequence: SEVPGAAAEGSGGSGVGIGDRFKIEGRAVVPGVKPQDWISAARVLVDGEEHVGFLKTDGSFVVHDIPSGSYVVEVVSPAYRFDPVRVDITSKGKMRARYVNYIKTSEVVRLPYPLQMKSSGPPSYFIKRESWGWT

In test [2] the target is T2, human EMC7 (wt), transfected, tagged (human) (UniProt Q9NPA0).
T2 sequence: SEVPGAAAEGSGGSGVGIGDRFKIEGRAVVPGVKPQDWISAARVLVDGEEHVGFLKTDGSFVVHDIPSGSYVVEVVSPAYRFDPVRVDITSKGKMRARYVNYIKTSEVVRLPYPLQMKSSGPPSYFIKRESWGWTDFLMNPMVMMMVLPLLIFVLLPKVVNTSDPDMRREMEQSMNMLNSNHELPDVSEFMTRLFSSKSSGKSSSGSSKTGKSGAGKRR

Test [3] concerns the target T3, yeast Emc5 with C-terminal GFP, endogenous locus (S. cerevisiae) (UniProt P40540).
T3 sequence: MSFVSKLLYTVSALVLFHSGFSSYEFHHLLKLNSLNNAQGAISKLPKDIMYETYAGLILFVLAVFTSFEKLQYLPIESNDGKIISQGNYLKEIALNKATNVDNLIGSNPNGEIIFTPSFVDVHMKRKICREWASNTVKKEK

For “ATP13A1, endogenous, HEK293T (from UniProt Q9HD20 1-1204)”, the binding result is reported as “no binding” in test [1] and “binds” in test [2].

B1: yeast Emc10, subunit in the recombinant EMC:Spf1 complex (natural protein)
chain: ADILQLSYSDDAKDAIPLGTFEIDSTSDGNVTVTTVNIQDVEVSGEYCLNAQIEGKLDMPCFSYMKLRTPLKYDLIVDVDEDNEVKQVSLSYDETNDAITATVRYPEAGPTAPVTKLKKKTKTYADKKASKNKDGSTAQFEEDEEVKEVSWFQKNWKMLLLGLLIYNFVAGSAKKQQQGGAGADQKTE
Consider B1, for which the binding result in test [3] was “binds”.
